Measurements from patent US20260034230A1.
These are yes or no findings as the source states them, for the method shown. Some entries that bind do so weakly or less than the wild type.

Amino acid sequences for entries named in this document (tags omitted). A change or cut given only in a name is not applied to a line headed by its entry. Chains listed by the source or under a name are the forms on record and can include a tag or linker.
hTfR(C89-F763).mmh (REGN2120) (P02786, form named): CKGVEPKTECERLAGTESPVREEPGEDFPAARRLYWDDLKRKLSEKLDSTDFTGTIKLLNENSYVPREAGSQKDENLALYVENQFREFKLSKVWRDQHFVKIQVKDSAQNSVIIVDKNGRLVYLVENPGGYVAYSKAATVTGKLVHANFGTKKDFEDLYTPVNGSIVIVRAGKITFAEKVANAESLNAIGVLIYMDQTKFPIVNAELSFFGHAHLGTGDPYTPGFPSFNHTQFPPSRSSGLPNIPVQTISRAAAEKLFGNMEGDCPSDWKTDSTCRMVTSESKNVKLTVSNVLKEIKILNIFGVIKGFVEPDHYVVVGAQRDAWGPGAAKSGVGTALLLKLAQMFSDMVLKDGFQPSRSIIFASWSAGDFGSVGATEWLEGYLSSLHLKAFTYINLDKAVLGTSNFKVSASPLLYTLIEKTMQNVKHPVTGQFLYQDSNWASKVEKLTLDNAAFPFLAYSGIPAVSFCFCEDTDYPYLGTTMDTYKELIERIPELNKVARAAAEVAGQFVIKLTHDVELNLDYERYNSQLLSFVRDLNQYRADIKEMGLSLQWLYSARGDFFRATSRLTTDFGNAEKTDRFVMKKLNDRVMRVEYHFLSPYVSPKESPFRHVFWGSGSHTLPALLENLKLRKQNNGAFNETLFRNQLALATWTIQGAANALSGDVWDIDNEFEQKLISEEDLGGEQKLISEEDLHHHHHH

Experiments:
[1] = target: REGN2120, hTfR(C89-F763).mmh (human) (UniProt P02786); assay: HDX-MS, hTfR in mixture with the mAb
[2] = target: hTfR(C89-F763).mmh (REGN2120) (human) (UniProt P02786); assay: HDX-MS, antibody mixed with hTfR.mmh

- binding [1]: binds
- binding [2]: binds
B1: REGN17517 (H1H31874B) (antibody, human IgG1, kappa, V domains shown)
VH: EVQLVESGGGLVQPGGSLRLSCAASGFAFSSYAMTWVRQAPGKGLEWVSVISGTGGSTYYADSVKGRFTISRDNSKNTLYLQMNSLRAEDTAVYYCAKGGAARRMEYFQYWGQGTLVTVSS
VL: DIQMTQSPSSLSASVGDRVTITCRASQGISNYLAWYQQKPGKVPNLLIYAASTLQSGVPSRFSGSGSGTDFTLTISSLQPEDVATYYCQKYNSAPLTFGGGTKVEIKR
